Results from the supplement of paper PMC12823440, “Inhibitors supercharge kinase turnover through native proteolytic circuits” (Nature, 2025).
The list shows a part of the results. The calls rarely recur for the same compound in another form.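 Kinases, fused to nanoluciferase, were expressed in K562 cells; luminescence was measured every 4 h from 2 to 18 h as percent of control (DMSO = 100%, positive control = 0%). A time point is decreased if signal falls significantly (2 sigma). Hits were called by the authors by a rule that is not shown; the count of time points alone does not decide it.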

The chains behind the UniProt entries cited, without tags or fusion partners. Where a name states a change or a piece, a line headed by the entry shows the natural chain unless it says otherwise.
UniProt Q06187: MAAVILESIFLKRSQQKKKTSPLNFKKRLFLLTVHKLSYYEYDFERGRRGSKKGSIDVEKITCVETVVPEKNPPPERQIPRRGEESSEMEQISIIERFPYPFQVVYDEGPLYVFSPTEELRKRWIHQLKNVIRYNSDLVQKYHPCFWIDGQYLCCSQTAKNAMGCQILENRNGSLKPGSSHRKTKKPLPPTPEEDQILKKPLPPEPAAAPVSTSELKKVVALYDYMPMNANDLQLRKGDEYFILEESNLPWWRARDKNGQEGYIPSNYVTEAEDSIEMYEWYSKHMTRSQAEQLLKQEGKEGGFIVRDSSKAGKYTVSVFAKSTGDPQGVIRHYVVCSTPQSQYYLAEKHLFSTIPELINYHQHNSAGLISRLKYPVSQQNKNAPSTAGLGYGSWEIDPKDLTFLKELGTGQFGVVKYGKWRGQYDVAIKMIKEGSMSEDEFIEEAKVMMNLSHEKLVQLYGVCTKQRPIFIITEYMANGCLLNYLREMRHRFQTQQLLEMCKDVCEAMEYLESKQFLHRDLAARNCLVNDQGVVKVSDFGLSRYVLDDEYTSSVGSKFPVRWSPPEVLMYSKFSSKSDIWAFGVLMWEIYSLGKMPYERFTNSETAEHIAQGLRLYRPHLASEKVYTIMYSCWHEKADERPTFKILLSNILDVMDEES
UniProt Q9UQM7, whole entry: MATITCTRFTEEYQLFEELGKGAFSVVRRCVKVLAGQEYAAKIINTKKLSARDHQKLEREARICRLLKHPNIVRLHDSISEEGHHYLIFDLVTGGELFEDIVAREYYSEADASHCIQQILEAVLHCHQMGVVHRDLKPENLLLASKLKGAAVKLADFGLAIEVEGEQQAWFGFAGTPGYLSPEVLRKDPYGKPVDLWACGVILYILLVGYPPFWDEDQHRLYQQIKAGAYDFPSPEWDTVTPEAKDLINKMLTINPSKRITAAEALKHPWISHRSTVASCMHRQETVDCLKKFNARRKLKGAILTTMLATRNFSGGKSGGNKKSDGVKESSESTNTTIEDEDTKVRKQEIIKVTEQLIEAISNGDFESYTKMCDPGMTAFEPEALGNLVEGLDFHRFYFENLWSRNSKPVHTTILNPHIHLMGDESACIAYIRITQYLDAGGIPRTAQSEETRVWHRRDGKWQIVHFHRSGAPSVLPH
UniProt Q13555: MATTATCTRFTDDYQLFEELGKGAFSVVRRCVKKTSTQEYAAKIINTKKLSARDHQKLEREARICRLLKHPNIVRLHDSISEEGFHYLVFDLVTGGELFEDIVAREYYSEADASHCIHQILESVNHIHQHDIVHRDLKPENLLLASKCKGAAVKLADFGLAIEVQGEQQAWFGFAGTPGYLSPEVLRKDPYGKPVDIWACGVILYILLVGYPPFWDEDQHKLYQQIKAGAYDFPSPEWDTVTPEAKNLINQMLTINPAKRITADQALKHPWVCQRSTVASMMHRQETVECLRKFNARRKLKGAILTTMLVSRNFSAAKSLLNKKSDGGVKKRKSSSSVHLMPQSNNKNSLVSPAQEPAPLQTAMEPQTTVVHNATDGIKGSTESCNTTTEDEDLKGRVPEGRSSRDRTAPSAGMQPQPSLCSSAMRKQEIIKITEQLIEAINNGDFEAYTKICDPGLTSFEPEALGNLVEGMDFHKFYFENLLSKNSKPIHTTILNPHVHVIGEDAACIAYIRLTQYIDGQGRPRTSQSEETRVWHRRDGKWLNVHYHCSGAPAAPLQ
UniProt Q15131: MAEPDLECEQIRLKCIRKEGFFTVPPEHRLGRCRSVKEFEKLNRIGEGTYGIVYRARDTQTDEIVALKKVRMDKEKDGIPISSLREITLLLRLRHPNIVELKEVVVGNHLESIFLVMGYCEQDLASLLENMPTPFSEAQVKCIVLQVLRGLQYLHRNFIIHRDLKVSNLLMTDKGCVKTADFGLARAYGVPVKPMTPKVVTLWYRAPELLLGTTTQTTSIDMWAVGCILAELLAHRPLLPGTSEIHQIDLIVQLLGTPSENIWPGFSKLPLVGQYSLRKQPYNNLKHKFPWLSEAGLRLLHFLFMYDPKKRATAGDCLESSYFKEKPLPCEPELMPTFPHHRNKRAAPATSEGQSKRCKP
UniProt Q00526: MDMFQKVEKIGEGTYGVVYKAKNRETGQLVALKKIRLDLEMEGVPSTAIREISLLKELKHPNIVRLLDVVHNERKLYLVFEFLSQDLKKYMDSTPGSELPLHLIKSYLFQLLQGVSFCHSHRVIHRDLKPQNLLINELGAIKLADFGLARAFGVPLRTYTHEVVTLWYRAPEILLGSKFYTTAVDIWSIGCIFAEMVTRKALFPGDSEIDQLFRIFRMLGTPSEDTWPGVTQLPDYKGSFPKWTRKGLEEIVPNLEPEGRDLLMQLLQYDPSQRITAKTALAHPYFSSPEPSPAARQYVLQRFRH
UniProt P11802: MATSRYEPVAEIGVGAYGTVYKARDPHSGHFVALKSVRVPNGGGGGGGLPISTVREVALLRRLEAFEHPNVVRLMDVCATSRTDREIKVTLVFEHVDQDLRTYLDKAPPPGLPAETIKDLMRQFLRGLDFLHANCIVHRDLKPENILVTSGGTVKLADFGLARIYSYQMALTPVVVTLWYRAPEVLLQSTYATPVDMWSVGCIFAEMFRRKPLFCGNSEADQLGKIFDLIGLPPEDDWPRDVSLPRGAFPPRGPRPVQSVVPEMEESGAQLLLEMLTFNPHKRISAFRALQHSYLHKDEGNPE
UniProt Q00535, whole entry, looked up: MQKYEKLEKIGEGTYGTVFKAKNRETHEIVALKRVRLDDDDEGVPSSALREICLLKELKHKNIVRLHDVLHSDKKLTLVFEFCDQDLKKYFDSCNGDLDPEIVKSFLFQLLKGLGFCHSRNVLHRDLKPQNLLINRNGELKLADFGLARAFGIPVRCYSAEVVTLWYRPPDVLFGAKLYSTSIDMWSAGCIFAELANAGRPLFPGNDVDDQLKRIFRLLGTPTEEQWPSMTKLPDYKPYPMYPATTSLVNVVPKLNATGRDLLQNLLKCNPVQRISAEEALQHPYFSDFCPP
UniProt Q00534, whole entry: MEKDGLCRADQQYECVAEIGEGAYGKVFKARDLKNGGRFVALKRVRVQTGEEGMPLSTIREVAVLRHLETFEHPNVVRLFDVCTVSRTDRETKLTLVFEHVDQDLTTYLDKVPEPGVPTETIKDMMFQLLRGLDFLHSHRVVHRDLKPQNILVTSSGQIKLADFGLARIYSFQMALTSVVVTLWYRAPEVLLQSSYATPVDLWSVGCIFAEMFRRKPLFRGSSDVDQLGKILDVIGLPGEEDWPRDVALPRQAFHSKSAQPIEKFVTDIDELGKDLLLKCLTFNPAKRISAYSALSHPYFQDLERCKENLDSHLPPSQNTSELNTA
UniProt P50613: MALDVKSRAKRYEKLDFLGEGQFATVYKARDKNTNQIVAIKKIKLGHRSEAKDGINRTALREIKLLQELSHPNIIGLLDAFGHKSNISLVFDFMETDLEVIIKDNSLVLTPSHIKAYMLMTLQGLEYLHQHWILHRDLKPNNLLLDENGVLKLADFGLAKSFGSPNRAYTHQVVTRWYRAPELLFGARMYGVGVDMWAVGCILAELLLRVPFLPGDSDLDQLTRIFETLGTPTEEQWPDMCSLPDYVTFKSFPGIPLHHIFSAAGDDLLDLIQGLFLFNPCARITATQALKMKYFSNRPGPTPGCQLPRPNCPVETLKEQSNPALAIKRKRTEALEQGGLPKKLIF
UniProt O96017, whole entry: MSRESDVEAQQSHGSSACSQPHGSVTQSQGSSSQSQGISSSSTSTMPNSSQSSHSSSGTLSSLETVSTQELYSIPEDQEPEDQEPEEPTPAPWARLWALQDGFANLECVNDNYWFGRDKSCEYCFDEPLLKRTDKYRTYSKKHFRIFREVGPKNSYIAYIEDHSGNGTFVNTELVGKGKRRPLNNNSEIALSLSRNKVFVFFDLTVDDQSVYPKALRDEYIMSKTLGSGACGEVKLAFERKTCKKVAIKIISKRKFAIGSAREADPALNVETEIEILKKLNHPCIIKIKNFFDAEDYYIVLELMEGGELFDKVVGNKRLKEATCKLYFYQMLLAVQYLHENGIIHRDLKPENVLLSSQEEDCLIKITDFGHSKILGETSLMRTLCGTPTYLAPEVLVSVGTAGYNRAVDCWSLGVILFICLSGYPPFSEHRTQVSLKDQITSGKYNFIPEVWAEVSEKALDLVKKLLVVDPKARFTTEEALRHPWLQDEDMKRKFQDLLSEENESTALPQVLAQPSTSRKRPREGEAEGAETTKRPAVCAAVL
UniProt P07333, whole entry: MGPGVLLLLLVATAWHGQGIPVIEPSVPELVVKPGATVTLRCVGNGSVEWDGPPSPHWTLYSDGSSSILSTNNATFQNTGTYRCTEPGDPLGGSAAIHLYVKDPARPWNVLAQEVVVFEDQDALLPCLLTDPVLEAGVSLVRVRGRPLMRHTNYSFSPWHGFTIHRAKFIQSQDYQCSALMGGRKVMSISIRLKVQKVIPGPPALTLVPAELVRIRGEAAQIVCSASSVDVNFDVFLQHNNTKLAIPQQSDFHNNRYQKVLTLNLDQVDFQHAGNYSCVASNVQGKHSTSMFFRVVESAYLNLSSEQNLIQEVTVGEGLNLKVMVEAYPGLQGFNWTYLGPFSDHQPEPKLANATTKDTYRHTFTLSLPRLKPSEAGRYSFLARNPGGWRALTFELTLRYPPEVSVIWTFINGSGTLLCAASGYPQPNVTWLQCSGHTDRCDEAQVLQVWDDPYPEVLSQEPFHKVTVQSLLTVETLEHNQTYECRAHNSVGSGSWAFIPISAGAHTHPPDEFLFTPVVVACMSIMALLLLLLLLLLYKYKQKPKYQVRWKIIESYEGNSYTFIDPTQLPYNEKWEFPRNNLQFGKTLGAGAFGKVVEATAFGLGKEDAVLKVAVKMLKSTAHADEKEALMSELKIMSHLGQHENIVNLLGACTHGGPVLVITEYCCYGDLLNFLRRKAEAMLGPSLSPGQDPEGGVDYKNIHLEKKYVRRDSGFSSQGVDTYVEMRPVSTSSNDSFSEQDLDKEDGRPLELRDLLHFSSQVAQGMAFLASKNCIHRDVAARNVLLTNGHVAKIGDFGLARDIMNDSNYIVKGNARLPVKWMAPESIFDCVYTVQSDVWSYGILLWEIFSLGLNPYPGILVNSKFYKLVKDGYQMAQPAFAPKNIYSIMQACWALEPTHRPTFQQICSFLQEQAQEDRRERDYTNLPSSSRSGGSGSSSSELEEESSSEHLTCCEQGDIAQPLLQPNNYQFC
UniProt P41240: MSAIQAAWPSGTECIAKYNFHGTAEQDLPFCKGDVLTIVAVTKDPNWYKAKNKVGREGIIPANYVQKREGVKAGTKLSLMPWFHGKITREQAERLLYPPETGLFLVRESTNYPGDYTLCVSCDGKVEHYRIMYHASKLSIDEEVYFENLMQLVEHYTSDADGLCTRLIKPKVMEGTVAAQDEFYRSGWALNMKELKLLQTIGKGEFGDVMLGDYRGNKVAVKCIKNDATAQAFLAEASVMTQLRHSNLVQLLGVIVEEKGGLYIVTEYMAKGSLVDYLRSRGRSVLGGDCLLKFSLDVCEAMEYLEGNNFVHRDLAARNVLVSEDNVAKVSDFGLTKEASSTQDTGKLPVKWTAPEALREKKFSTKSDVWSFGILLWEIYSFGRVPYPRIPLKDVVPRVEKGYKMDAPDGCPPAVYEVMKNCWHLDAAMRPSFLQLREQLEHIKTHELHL
UniProt P48729: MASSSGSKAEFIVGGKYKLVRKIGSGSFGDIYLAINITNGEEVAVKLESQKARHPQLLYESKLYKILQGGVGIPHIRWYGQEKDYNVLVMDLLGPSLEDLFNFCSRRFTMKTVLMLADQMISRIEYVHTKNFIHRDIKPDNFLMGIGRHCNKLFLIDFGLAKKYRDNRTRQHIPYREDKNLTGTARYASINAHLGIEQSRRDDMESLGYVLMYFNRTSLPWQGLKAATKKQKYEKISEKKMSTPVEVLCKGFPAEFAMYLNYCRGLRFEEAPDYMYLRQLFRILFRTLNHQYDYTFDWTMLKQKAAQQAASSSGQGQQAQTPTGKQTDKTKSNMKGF
UniProt Q9Y463, whole entry, looked up: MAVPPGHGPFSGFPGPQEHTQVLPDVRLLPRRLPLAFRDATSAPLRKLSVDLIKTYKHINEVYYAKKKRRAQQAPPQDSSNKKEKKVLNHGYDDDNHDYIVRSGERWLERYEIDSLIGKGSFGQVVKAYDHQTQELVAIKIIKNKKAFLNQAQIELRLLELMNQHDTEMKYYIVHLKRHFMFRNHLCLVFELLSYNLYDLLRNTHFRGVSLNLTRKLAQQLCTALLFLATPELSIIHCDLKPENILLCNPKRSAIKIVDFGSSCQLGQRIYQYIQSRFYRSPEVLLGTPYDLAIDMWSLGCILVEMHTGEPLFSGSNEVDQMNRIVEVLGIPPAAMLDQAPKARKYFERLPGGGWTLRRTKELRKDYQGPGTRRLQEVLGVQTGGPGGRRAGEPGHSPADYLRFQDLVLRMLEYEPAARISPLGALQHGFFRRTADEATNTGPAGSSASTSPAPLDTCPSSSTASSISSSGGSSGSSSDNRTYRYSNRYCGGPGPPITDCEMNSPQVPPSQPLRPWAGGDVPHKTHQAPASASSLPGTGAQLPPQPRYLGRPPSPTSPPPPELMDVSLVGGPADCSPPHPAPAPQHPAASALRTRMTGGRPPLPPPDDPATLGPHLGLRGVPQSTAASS

How the values were obtained:
Assay in all cases: kinase-Nluc reporter destabilization hit call (1 = scored as downregulated) (binary); higher = compound decreases kinase abundance
Conditions in all cases: K562; 2-18 h
BRAF_V600E = system: BRAF_V600E
BTK = BTK (UniProt Q06187)
CAMK2A = CAMK2A (UniProt Q9UQM7)
CAMK2G = CAMK2G (UniProt Q13555)
CDK10 = CDK10 (UniProt Q15131)
CDK2 = CDK2 (UniProt P24941)
CDK3 = CDK3 (UniProt Q00526)
CDK4 = CDK4 (UniProt P11802)
CDK5 = CDK5 (UniProt Q00535)
CDK6 = CDK6 (UniProt Q00534)
CDK7 = CDK7 (UniProt P50613)
CDK9 = CDK9 (UniProt P50750)
CHEK2 = CHEK2 (UniProt O96017)
CSF1R = CSF1R (UniProt P07333)
CSK = CSK (UniProt P41240)
CSNK1A1 = CSNK1A1 (UniProt P48729)
CSNK1D = CSNK1D (UniProt P48730)
DDR1 = DDR1 (UniProt Q08345)
DYRK1B = DYRK1B (UniProt Q9Y463)
DYRK2 = DYRK2 (UniProt Q92630)

SMILES: C[C@@H]1COCCN1c1cc(=O)n2c(n1)N(Cc1cncc(Cl)c1)[C@H](C(F)(F)F)CC2 (10 µM)
- kinase-Nluc reporter destabilization hit call (BRAF_V600E): inactive: 0
- kinase-Nluc reporter destabilization hit call (BTK): inactive: 0
- kinase-Nluc reporter destabilization hit call (CAMK2A): inactive: 0
- kinase-Nluc reporter destabilization hit call (CAMK2G): inactive: 0
- kinase-Nluc reporter destabilization hit call (CDK10): inactive: 0
- kinase-Nluc reporter destabilization hit call (CDK2): inactive: 0
- kinase-Nluc reporter destabilization hit call (CDK3): inactive: 0
- kinase-Nluc reporter destabilization hit call (CDK4): inactive: 0
- kinase-Nluc reporter destabilization hit call (CDK5): inactive: 0
- kinase-Nluc reporter destabilization hit call (CDK6): inactive: 0
- kinase-Nluc reporter destabilization hit call (CDK7): inactive: 0
- kinase-Nluc reporter destabilization hit call (CDK9): inactive: 0
- kinase-Nluc reporter destabilization hit call (CHEK2): inactive: 0
- kinase-Nluc reporter destabilization hit call (CSF1R): inactive: 0
- kinase-Nluc reporter destabilization hit call (CSK): inactive: 0
- kinase-Nluc reporter destabilization hit call (CSNK1A1): inactive: 0
- kinase-Nluc reporter destabilization hit call (CSNK1D): inactive: 0
- kinase-Nluc reporter destabilization hit call (DDR1): inactive: 0
- kinase-Nluc reporter destabilization hit call (DYRK1B): inactive: 0
- kinase-Nluc reporter destabilization hit call (DYRK2): inactive: 0

SMILES: CN1C(=O)NC(Cc2c[nH]c3c(Cl)cccc23)C1=O (racemic) [Necrostatin 2 (racemate)] (10 µM)
- kinase-Nluc reporter destabilization hit call (BRAF_V600E): inactive: 0
- kinase-Nluc reporter destabilization hit call (BTK): inactive: 0
- kinase-Nluc reporter destabilization hit call (CAMK2A): inactive: 0
- kinase-Nluc reporter destabilization hit call (CAMK2G): inactive: 0
- kinase-Nluc reporter destabilization hit call (CDK10): inactive: 0
- kinase-Nluc reporter destabilization hit call (CDK2): inactive: 0
- kinase-Nluc reporter destabilization hit call (CDK3): inactive: 0
- kinase-Nluc reporter destabilization hit call (CDK4): inactive: 0
- kinase-Nluc reporter destabilization hit call (CDK5): inactive: 0
- kinase-Nluc reporter destabilization hit call (CDK6): inactive: 0
- kinase-Nluc reporter destabilization hit call (CDK7): inactive: 0
- kinase-Nluc reporter destabilization hit call (CDK9): inactive: 0
- kinase-Nluc reporter destabilization hit call (CHEK2): inactive: 0
- kinase-Nluc reporter destabilization hit call (CSF1R): inactive: 0
- kinase-Nluc reporter destabilization hit call (CSK): inactive: 0
- kinase-Nluc reporter destabilization hit call (CSNK1A1): inactive: 0
- kinase-Nluc reporter destabilization hit call (CSNK1D): inactive: 0
- kinase-Nluc reporter destabilization hit call (DDR1): inactive: 0
- kinase-Nluc reporter destabilization hit call (DYRK1B): inactive: 0
- kinase-Nluc reporter destabilization hit call (DYRK2): inactive: 0

SMILES: COc1c(O)cc2oc3cc(O)c(CC=C(C)C)c(O)c3c(=O)c2c1CCC(C)(C)O [Garcinone D] (2.5 µM)
- kinase-Nluc reporter destabilization hit call (BRAF_V600E): inactive: 0
- kinase-Nluc reporter destabilization hit call (BTK): inactive: 0
- kinase-Nluc reporter destabilization hit call (CAMK2A): inactive: 0
- kinase-Nluc reporter destabilization hit call (CAMK2G): inactive: 0
- kinase-Nluc reporter destabilization hit call (CDK10): inactive: 0
- kinase-Nluc reporter destabilization hit call (CDK2): inactive: 0
- kinase-Nluc reporter destabilization hit call (CDK3): inactive: 0
- kinase-Nluc reporter destabilization hit call (CDK4): inactive: 0
- kinase-Nluc reporter destabilization hit call (CDK5): inactive: 0
- kinase-Nluc reporter destabilization hit call (CDK6): inactive: 0
- kinase-Nluc reporter destabilization hit call (CDK7): inactive: 0
- kinase-Nluc reporter destabilization hit call (CDK9): inactive: 0
- kinase-Nluc reporter destabilization hit call (CHEK2): inactive: 0
- kinase-Nluc reporter destabilization hit call (CSF1R): inactive: 0
- kinase-Nluc reporter destabilization hit call (CSK): inactive: 0
- kinase-Nluc reporter destabilization hit call (CSNK1A1): inactive: 0
- kinase-Nluc reporter destabilization hit call (CSNK1D): inactive: 0
- kinase-Nluc reporter destabilization hit call (DDR1): inactive: 0
- kinase-Nluc reporter destabilization hit call (DYRK1B): inactive: 0
- kinase-Nluc reporter destabilization hit call (DYRK2): inactive: 0

SMILES: COc1nc(-c2ccnc(NC(=O)C3CC3)c2)sc1C(N)=O [GSK-3β inhibitor 2] (10 µM)
- kinase-Nluc reporter destabilization hit call (BRAF_V600E): inactive: 0
- kinase-Nluc reporter destabilization hit call (BTK): inactive: 0
- kinase-Nluc reporter destabilization hit call (CAMK2A): inactive: 0
- kinase-Nluc reporter destabilization hit call (CAMK2G): inactive: 0
- kinase-Nluc reporter destabilization hit call (CDK10): inactive: 0
- kinase-Nluc reporter destabilization hit call (CDK2): inactive: 0
- kinase-Nluc reporter destabilization hit call (CDK3): inactive: 0
- kinase-Nluc reporter destabilization hit call (CDK4): inactive: 0
- kinase-Nluc reporter destabilization hit call (CDK5): inactive: 0
- kinase-Nluc reporter destabilization hit call (CDK6): inactive: 0
- kinase-Nluc reporter destabilization hit call (CDK7): inactive: 0
- kinase-Nluc reporter destabilization hit call (CDK9): inactive: 0
- kinase-Nluc reporter destabilization hit call (CHEK2): inactive: 0
- kinase-Nluc reporter destabilization hit call (CSF1R): inactive: 0
- kinase-Nluc reporter destabilization hit call (CSK): inactive: 0
- kinase-Nluc reporter destabilization hit call (CSNK1A1): inactive: 0
- kinase-Nluc reporter destabilization hit call (CSNK1D): inactive: 0
- kinase-Nluc reporter destabilization hit call (DDR1): inactive: 0
- kinase-Nluc reporter destabilization hit call (DYRK1B): inactive: 0
- kinase-Nluc reporter destabilization hit call (DYRK2): inactive: 0

SMILES: CC1=C(CC(=O)O)c2cc(F)ccc2/C1=C\c1ccc(C(C)C)cc1 (10 µM)
- kinase-Nluc reporter destabilization hit call (BRAF_V600E): inactive: 0
- kinase-Nluc reporter destabilization hit call (BTK): inactive: 0
- kinase-Nluc reporter destabilization hit call (CAMK2A): inactive: 0
- kinase-Nluc reporter destabilization hit call (CAMK2G): inactive: 0
- kinase-Nluc reporter destabilization hit call (CDK10): inactive: 0
- kinase-Nluc reporter destabilization hit call (CDK2): inactive: 0
- kinase-Nluc reporter destabilization hit call (CDK3): active: 1
- kinase-Nluc reporter destabilization hit call (CDK4): inactive: 0
- kinase-Nluc reporter destabilization hit call (CDK5): inactive: 0
- kinase-Nluc reporter destabilization hit call (CDK6): inactive: 0
- kinase-Nluc reporter destabilization hit call (CDK7): inactive: 0
- kinase-Nluc reporter destabilization hit call (CDK9): inactive: 0
- kinase-Nluc reporter destabilization hit call (CHEK2): inactive: 0
- kinase-Nluc reporter destabilization hit call (CSF1R): inactive: 0
- kinase-Nluc reporter destabilization hit call (CSK): inactive: 0
- kinase-Nluc reporter destabilization hit call (CSNK1A1): inactive: 0
- kinase-Nluc reporter destabilization hit call (CSNK1D): inactive: 0
- kinase-Nluc reporter destabilization hit call (DDR1): inactive: 0
- kinase-Nluc reporter destabilization hit call (DYRK1B): active: 1
- kinase-Nluc reporter destabilization hit call (DYRK2): inactive: 0

SMILES: COc1cc2ncnc(Nc3ccc(NC(=O)c4ccccc4)cc3)c2cc1OC [Aurora kinase inhibitor-2] (2.5 µM)
- kinase-Nluc reporter destabilization hit call (BRAF_V600E): inactive: 0
- kinase-Nluc reporter destabilization hit call (BTK): inactive: 0
- kinase-Nluc reporter destabilization hit call (CAMK2A): inactive: 0
- kinase-Nluc reporter destabilization hit call (CAMK2G): inactive: 0
- kinase-Nluc reporter destabilization hit call (CDK10): inactive: 0
- kinase-Nluc reporter destabilization hit call (CDK2): inactive: 0
- kinase-Nluc reporter destabilization hit call (CDK3): inactive: 0
- kinase-Nluc reporter destabilization hit call (CDK4): inactive: 0
- kinase-Nluc reporter destabilization hit call (CDK5): inactive: 0
- kinase-Nluc reporter destabilization hit call (CDK6): inactive: 0
- kinase-Nluc reporter destabilization hit call (CDK7): inactive: 0
- kinase-Nluc reporter destabilization hit call (CDK9): inactive: 0
- kinase-Nluc reporter destabilization hit call (CHEK2): inactive: 0
- kinase-Nluc reporter destabilization hit call (CSF1R): inactive: 0
- kinase-Nluc reporter destabilization hit call (CSK): inactive: 0
- kinase-Nluc reporter destabilization hit call (CSNK1A1): inactive: 0
- kinase-Nluc reporter destabilization hit call (CSNK1D): inactive: 0
- kinase-Nluc reporter destabilization hit call (DDR1): inactive: 0
- kinase-Nluc reporter destabilization hit call (DYRK1B): inactive: 0
- kinase-Nluc reporter destabilization hit call (DYRK2): inactive: 0

SMILES: CCn1nc(C2CCN(C(=O)CCO)CC2)nc1-c1cnc(N)c(-c2nnc(C(C)(C)C)o2)n1 (10 µM)
- kinase-Nluc reporter destabilization hit call (BRAF_V600E): inactive: 0
- kinase-Nluc reporter destabilization hit call (BTK): inactive: 0
- kinase-Nluc reporter destabilization hit call (CAMK2A): inactive: 0
- kinase-Nluc reporter destabilization hit call (CAMK2G): inactive: 0
- kinase-Nluc reporter destabilization hit call (CDK10): inactive: 0
- kinase-Nluc reporter destabilization hit call (CDK2): inactive: 0
- kinase-Nluc reporter destabilization hit call (CDK3): inactive: 0
- kinase-Nluc reporter destabilization hit call (CDK4): inactive: 0
- kinase-Nluc reporter destabilization hit call (CDK5): inactive: 0
- kinase-Nluc reporter destabilization hit call (CDK6): inactive: 0
- kinase-Nluc reporter destabilization hit call (CDK7): inactive: 0
- kinase-Nluc reporter destabilization hit call (CDK9): inactive: 0
- kinase-Nluc reporter destabilization hit call (CHEK2): inactive: 0
- kinase-Nluc reporter destabilization hit call (CSF1R): inactive: 0
- kinase-Nluc reporter destabilization hit call (CSK): inactive: 0
- kinase-Nluc reporter destabilization hit call (CSNK1A1): inactive: 0
- kinase-Nluc reporter destabilization hit call (CSNK1D): inactive: 0
- kinase-Nluc reporter destabilization hit call (DDR1): inactive: 0
- kinase-Nluc reporter destabilization hit call (DYRK1B): inactive: 0
- kinase-Nluc reporter destabilization hit call (DYRK2): inactive: 0

SMILES: O=c1ccc2ccc(O)c(O)c2o1 [Daphnetin] (10 µM)
- kinase-Nluc reporter destabilization hit call (BRAF_V600E): inactive: 0
- kinase-Nluc reporter destabilization hit call (BTK): inactive: 0
- kinase-Nluc reporter destabilization hit call (CAMK2A): inactive: 0
- kinase-Nluc reporter destabilization hit call (CAMK2G): inactive: 0
- kinase-Nluc reporter destabilization hit call (CDK10): inactive: 0
- kinase-Nluc reporter destabilization hit call (CDK2): inactive: 0
- kinase-Nluc reporter destabilization hit call (CDK3): inactive: 0
- kinase-Nluc reporter destabilization hit call (CDK4): inactive: 0
- kinase-Nluc reporter destabilization hit call (CDK5): inactive: 0
- kinase-Nluc reporter destabilization hit call (CDK6): inactive: 0
- kinase-Nluc reporter destabilization hit call (CDK7): inactive: 0
- kinase-Nluc reporter destabilization hit call (CDK9): inactive: 0
- kinase-Nluc reporter destabilization hit call (CHEK2): inactive: 0
- kinase-Nluc reporter destabilization hit call (CSF1R): inactive: 0
- kinase-Nluc reporter destabilization hit call (CSK): inactive: 0
- kinase-Nluc reporter destabilization hit call (CSNK1A1): inactive: 0
- kinase-Nluc reporter destabilization hit call (CSNK1D): inactive: 0
- kinase-Nluc reporter destabilization hit call (DDR1): inactive: 0
- kinase-Nluc reporter destabilization hit call (DYRK1B): inactive: 0
- kinase-Nluc reporter destabilization hit call (DYRK2): inactive: 0

SMILES: CC(C)(C)c1cc(C(c2cc3c(cc2O)OCO3)N2CCOCC2)cc(C(C)(C)C)c1O (stereo not given) (2.5 µM)
- kinase-Nluc reporter destabilization hit call (BRAF_V600E): inactive: 0
- kinase-Nluc reporter destabilization hit call (BTK): inactive: 0
- kinase-Nluc reporter destabilization hit call (CAMK2A): inactive: 0
- kinase-Nluc reporter destabilization hit call (CAMK2G): inactive: 0
- kinase-Nluc reporter destabilization hit call (CDK10): inactive: 0
- kinase-Nluc reporter destabilization hit call (CDK2): inactive: 0
- kinase-Nluc reporter destabilization hit call (CDK3): inactive: 0
- kinase-Nluc reporter destabilization hit call (CDK4): inactive: 0
- kinase-Nluc reporter destabilization hit call (CDK5): inactive: 0
- kinase-Nluc reporter destabilization hit call (CDK6): inactive: 0
- kinase-Nluc reporter destabilization hit call (CDK7): inactive: 0
- kinase-Nluc reporter destabilization hit call (CDK9): inactive: 0
- kinase-Nluc reporter destabilization hit call (CHEK2): inactive: 0
- kinase-Nluc reporter destabilization hit call (CSF1R): inactive: 0
- kinase-Nluc reporter destabilization hit call (CSK): inactive: 0
- kinase-Nluc reporter destabilization hit call (CSNK1A1): inactive: 0
- kinase-Nluc reporter destabilization hit call (CSNK1D): inactive: 0
- kinase-Nluc reporter destabilization hit call (DDR1): inactive: 0
- kinase-Nluc reporter destabilization hit call (DYRK1B): inactive: 0
- kinase-Nluc reporter destabilization hit call (DYRK2): inactive: 0
